# Results reported in the supplement of paper PMC10338343.
# ± gives the standard deviation. The entries are a selection whose mix differs from that of the whole data set. Many of these values have a large error.
# System: MILI (PIWIL2) piRISC loaded with L1MC piRNA (26 nt)
# Assay: pre-steady-state target cleavage rate (min^-1); MIWI and MILI are mouse PIWI proteins and EfPiwi is from a freshwater sponge; tags in brackets are library labels; higher = faster piRNA-guided slicing of the target
# Settings: guide: L1MC piRNA 5'p-UAACUAAAUACUAUGCAAGCUGUAGG; auxiliary factor: 500 nM mouse GTSF1
# Description: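 Cleave-'n-Seq: a library of target RNAs (target site embedded in constant flanks, ACAGCATTCCGCGTTAGTGATATCCG... 5' flank; DNA-blocked outside the site) at 0.1 nM was incubated with 1 nM active mouse MILI or MIWI piRISC (synthetic 5'-monophosphorylated piRNA guide) with or without 500 nM mouse GTSF1 at 33 °C for 1 min to 16 h. Uncleaved targets were sequenced and normalised to non-target controls, and the pooled three trials were fitted to a burst-and-steady-state model to give the pre-steady-state cleavage rate (min^-1; k3 is constrained to at most 1e-4). Sequence is the target site only; target names encode pairing extent (gX:gY) and contiguous / 1-mismatch / 2-mismatch / bulge geometry. Fits with R² ≤ 0 are excluded.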
row,Sequence,pre-steady-state target cleavage rate
1,UCCUGGAUGUCGAUGCAUAGUAUUAUAGUUA,0.123 ± 0.021
2,UCCUGGAUGUGCUACGAUAGUAUUUAGUUA,0.0029 ± 0.0048
3,UCCUGGUACAGCUUGCAAAGAAUUUAGUUA,0.00951 ± 0.0059
4,UCCUGGUUCAGCUUGGAUAGUAUUUAGUUA,0.191 ± 0.022
5,UCCUGGAUGUCGAACGAUGGUAUUUAGUUA,< 0.0001
6,UCCUGGAUGAGCUUGCAUAGUAUUUUGAAA,0.0223 ± 0.0096
7,UCCUGGAUCAGCUUGCAUAGUUUUAGUUA,0.00374 ± 0.0036
8,UCCUGCUACAGCUUGCGAUAGUAUUUAGUUA,0.0073 ± 0.0045
9,UCCUGGAACUCCUUGCAUAGUAUUUUCAAA,0.0315 ± 0.0074
10,UCCUGGAUGAGCUUGCAAAGUUUUUAGUUA,0.00724 ± 0.004
11,UCCUGGAACAGCAACCAUAGUAUUUUCAAA,0.00126 ± 0.0053
12,UCCUGGAACAGCUUGCAUAGUAUUUAGAAA,0.0838 ± 0.015
13,UCCUGGAUGUCCUAGCAUAGUAUUUUGUUA,0.0105 ± 0.0061

# Same assay, conditions: guide: L1MC piRNA 5'p-UAACUAAAUACUAUGCAAGCUGUAGG; auxiliary factor: none (no GTSF1)
row,Sequence,pre-steady-state target cleavage rate
1,UCCUGGAUGUCGAUGCAUAGUAUUAUAGUUA,0.00538 ± 0.0026
2,UCCUGGUACAGCUUGCAUAGAAUUUAGAAA,0.00193 ± 0.0049
3,UCCUGGAUGAGCUUGCAUAGUUUUAAGUUA,0.00247 ± 0.0029
4,UCCUGGUACAGCUUGCAUACGUAUUUAGUUA,0.00282 ± 0.0056
5,UCCUGGAUGUGCUACGAUAGUAUUUAGUUA,0.00117 ± 0.0052
6,UCCUGGUACAGCUUGCAAAGAAUUUAGUUA,0.00286 ± 0.004
7,UCCUGGAUGUCGAUGCAUAGUAUUCUAGUUA,0.00197 ± 0.0045
8,UCCUGGUUCAGCUUGGAUAGUAUUUAGUUA,0.013 ± 0.0035
9,UCCUGCUACAGCUUGCAUAGUAUUUAGAAA,0.00178 ± 0.0037
10,UCCUCCUACAGGUUGCAUAGUAUUUACUUA,0.00196 ± 0.0028
11,UCCUGGAUGUCGAACGAUGGUAUUUAGUUA,0.000498 ± 0.008
12,UCCUGGUACAGCUUGCAUAGUAUUUUGAAA,0.00244 ± 0.0033
13,UCCUGGAUGAGCUUGCAUAGUAUUUUGAAA,0.00108 ± 0.006
14,UCCUGGAUCAGCUUGCAUAGUUUUAGUUA,0.00156 ± 0.0037
15,UCCUGGAACAGCUUGCAAUGUAUUUACAAA,0.000756 ± 0.0083
16,UCCUGCUACAGCUACGAUAGUAUUUACAAA,0.00017 ± 0.016
17,UCCUGCUACAGCUUGCGAUAGUAUUUAGUUA,0.00149 ± 0.0037
18,UCCUGGAUGUGCUUGCAUAGUAUUUGUUA,0.00113 ± 0.0059
19,UCCUGGAACUCCUUGCAUAGUAUUUUCAAA,0.000881 ± 0.006
20,UCCUGGAUGAGCUUGCAAAGUUUUUAGUUA,0.00276 ± 0.0036
21,UCCUGGAACAGCAACCAUAGUAUUUUCAAA,0.000444 ± 0.013
22,UCCUGGAACAGCUUGCAUAGUAUUUAGAAA,0.00244 ± 0.0024
23,UCCUGGAUGUCCUAGCAUAGUAUUUUGUUA,0.00141 ± 0.005
24,UCCUCGUACAGCUUCCAUAGUAUUUAGUUA,0.00135 ± 0.0039
25,UCCUGCUACAGCUUGCAAAGUUUUUAGUUA,0.0024 ± 0.0027
26,UCCUGCUACAGCUUGGAUAGUAAUUAGUUA,0.00265 ± 0.0029
